Measurements reported in PubChem BioAssay AID1259308 (NCATS, 2017)

Aim: 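Genes whose loss raises luciferase production in HEK293 cells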 (primary screen)
Cells: human HEK293 embryonic kidney cells stably expressing firefly luciferase (HEK-CMV-Luc2-Hygro)
Knock-down reagent: single siRNA against human genes, 0.8 pmol siRNA per well
Duration: 72 h
Read-out: 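Luciferase light (ONE-Glo) measured on one replicate plate set and viability (CellTiter-Glo) on the other, scaled to a negative control siRNA, with robust z-scores and luciferase per cell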
Scale: total luciferase, z-score: higher = more reporter protein produced
Rule for the call: 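Active when the median/MAD z-score for overall luciferase is greater than 3; a gene was taken forward for validation with new siRNAs if at least two of its three siRNAs passed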
Calls: active = raised luciferase; inactive = no rise
Shown is an unselected part of about 59,000 deposited reagents. Of all reagents, about 1,510 (2.6%) got an active call. 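Calls use total luciferase alone and ignore viability, so some active siRNAs may act by altering cell number.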 Entries without a mark were called inactive. The numbers tell different reagents against one gene apart. Not all columns of the deposit are shown.

Which result is listed for MUC3B #1?
total luciferase, z-score: 1.84

For MUC3B #2, what was measured?
total luciferase, z-score: -1.14

For MUC3B #3, what was measured?
total luciferase, z-score: 0.31

Which result is listed for MUC3B #4?
total luciferase, z-score: -1.08

For MUC3B #5, how do the results read?
total luciferase, z-score: -0.94

With MUC3B #6, how do the results read?
total luciferase, z-score: 1.51

With VAX2 #1, how do the results read?
total luciferase, z-score: -0.261

What did the screen give for VAX2 #2?
total luciferase, z-score: 1.19

What did the screen give for VAX2 #3?
total luciferase, z-score: -0.572

With MSGN1 #1, what was measured?
total luciferase, z-score: -0.368

How did the screen score MSGN1 #2?
total luciferase, z-score: 0.213

What did the screen give for MSGN1 #3?
total luciferase, z-score: -0.0936

What is on record for TKFC #1?
total luciferase, z-score: -0.659

Which result is listed for TKFC #2?
total luciferase, z-score: -0.373

How did the screen score TKFC #3?
total luciferase, z-score: 1

With RXYLT1 #1, what does the deposit list?
total luciferase, z-score: 0.00577

What did the screen give for RXYLT1 #2?
total luciferase, z-score: -0.0862

With RXYLT1 #3, what was measured?
total luciferase, z-score: -0.397

How did the screen score GABRG2 #1?
total luciferase, z-score: -0.209

With GABRG2 #2, what was measured?
total luciferase, z-score: -0.692

For GABRG2 #3, what does the deposit list?
total luciferase, z-score: 0.805

For SLC22A6 #1, what was measured?
total luciferase, z-score: -0.716

For SLC22A6 #2, what does the deposit list?
total luciferase, z-score: -1.62

Which result is listed for SLC22A6 #3?
total luciferase, z-score: 1.64

Which result is listed for NUDT18 #1?
total luciferase, z-score: 0.388

Which result is listed for NUDT18 #2?
total luciferase, z-score: 0.726

With NUDT18 #3, what does the deposit list?
total luciferase, z-score: 1.55

Laid out differently: entries from further up
MUC3B #3
- total luciferase, z-score: 0.31

MUC3B #4
- total luciferase, z-score: -1.08

Next reagents follow.
With TAF1A #1, what was measured?
total luciferase, z-score: 1.95

Which result is listed for TAF1A #2?
total luciferase, z-score: -0.364

For TAF1A #3, what does the deposit list?
total luciferase, z-score: -1.6

What is on record for C17orf58 #1?
total luciferase, z-score: 0.539

For C17orf58 #2, what was measured?
total luciferase, z-score: -1.54

What is on record for C17orf58 #3?
total luciferase, z-score: 2.28

What did the screen give for CHPT1 #1?
total luciferase, z-score: -0.781

For CHPT1 #2, what was measured?
total luciferase, z-score: -0.182

What did the screen give for CHPT1 #3?
total luciferase, z-score: 0.673

Which result is listed for ZMAT2 #1?
total luciferase, z-score: 0.305

For ZMAT2 #2, what was measured?
total luciferase, z-score: -0.312

With ZMAT2 #3, what does the deposit list?
total luciferase, z-score: 1.44

For SAG #1, how do the results read?
total luciferase, z-score: -0.0631

Which result is listed for SAG #2?
total luciferase, z-score: 0.186

For SAG #3, what does the deposit list?
total luciferase, z-score: 0.612
